Source: article PMC3815127
These are yes or no findings as the source states them, for the method shown. In cells and extracts the contact can be indirect. A result given as binding can be weak or reduced; the word gives no strength.

The chains behind the UniProt entries cited, without tags or fusion partners. Where a name states a change or a piece, a line headed by the entry shows the natural chain unless it says otherwise.
UniProt Q14974: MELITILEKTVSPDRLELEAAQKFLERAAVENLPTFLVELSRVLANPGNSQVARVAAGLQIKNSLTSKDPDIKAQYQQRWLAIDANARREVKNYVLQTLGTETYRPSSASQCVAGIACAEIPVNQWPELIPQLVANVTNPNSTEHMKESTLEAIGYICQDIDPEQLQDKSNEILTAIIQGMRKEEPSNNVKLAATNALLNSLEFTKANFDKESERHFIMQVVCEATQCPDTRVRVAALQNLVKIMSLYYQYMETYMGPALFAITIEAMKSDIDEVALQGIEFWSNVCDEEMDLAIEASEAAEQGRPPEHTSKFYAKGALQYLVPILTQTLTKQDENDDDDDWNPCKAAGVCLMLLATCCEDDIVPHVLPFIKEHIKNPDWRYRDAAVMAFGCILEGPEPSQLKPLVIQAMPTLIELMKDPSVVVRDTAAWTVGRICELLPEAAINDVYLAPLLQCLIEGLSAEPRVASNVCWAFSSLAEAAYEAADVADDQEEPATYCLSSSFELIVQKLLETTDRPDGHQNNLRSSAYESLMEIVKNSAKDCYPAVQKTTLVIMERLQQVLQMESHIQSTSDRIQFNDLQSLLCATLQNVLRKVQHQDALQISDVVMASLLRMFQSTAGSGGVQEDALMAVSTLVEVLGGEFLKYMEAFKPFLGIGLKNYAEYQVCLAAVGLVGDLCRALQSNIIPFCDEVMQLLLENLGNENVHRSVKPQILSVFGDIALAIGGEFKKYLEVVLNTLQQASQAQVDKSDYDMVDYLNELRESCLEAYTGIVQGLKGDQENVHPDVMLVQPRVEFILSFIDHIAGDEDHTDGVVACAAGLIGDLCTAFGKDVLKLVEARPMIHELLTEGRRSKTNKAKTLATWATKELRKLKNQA
UniProt P17028: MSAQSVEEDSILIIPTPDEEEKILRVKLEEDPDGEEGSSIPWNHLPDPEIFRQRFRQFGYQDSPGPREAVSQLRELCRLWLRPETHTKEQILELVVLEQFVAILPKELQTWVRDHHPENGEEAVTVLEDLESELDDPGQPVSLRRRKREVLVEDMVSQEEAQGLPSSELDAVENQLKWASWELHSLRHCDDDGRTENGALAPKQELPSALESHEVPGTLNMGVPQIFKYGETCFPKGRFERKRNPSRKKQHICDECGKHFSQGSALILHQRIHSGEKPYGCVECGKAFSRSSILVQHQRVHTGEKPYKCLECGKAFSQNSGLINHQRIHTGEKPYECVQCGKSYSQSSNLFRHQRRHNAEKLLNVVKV

Target: Importin-β1 (human (endogenous in HEK293)) (UniProt Q14974)
Assay: co-IP; Importin-β1 immunoprecipitated from 500 µg pre-cleared whole cell lysate of HEK293 cells transiently expressing GFP-tagged ZNF24 proteins, 1.0 µg Karyopherin-β1 antibody (or mouse IgG as control) 2 h, Protein A/G beads overnight at 4°C; blotted with anti-GFP or anti-importin

Substance	binding
ZNF24-GFP K286A mutant (from UniProt P17028)	binds
ZNF24-GFP R290A mutant (from UniProt P17028)	binds
